Results published in patent publication US8476407B2, “Metallopeptide catalysts” (William Marsh Rice University, priority 2009, dated 2013).
Some entries share one result that the patent states for a list of compounds.

Each compound was assayed on K3a,eRh2 (assay: Covalent modification of E3gX peptides with diazo reagent 1 catalysed by K3a,eRh2). Conditions: metallopeptide catalyst K3a,eRh2 and diazo reagent 1.
Assay type: biochemical
Method: Binding the dirhodium center at positions a and e ensures that the metal will be held proximal to the coil-coil interface, and the a, e spacing serves to stabilize the necessary helical structure.
Covalent modification of variable residue g was then examined.
Relative modification rates (krel) were based on conversion at 1 hour, which corrects for catalyst loading and assumes first-order catalysis.

| Structure (SMILES) | conversion within 24 h [%] |
| --- | --- |
| N=C(N)NCCC[C@H](N)C(=O)O [Arg] | > 65 |
| NC(=O)CC[C@H](N)C(=O)O [Gln] | > 65 |
| N[C@@H](CCC(=O)O)C(=O)O [Glu] | > 65 |
